Assay results taken from PMC11923636, “Synthesis, Pharmacological Evaluation, and Molecular Modeling of Phthalimide Derivatives as Monoamine Oxidase and Cholinesterase Dual Inhibitors” (ACS Omega, 2025).
Like-named read-outs stand apart in the source and are kept apart here.

Procedure: A fundamental requirement for the effectiveness of anti-AD drugs is their capability to traverse the BBB (blood–brain barrier). […]
Briefly, synthesized compounds were first dissolved in DMSO (10 mM) that was further diluted by the addition of phosphate buffer ([…]) having a pH of 7.4. PBL dissolved in dodecane was used for coating the membranes of the donor plates. Then, the test compound (0.2 mL) was added to the plate, followed by PBS (0.2 mL; pH = 7.4) to the acceptor plate, which was further placed under the donor plate in order to form a “sandwich”. […] A UV plate reader was employed for the measurements of the drug concentration in donor, acceptor, and reference wells. The permeability (Pe) of the compounds was measured by using the following formula. [drawing 2]

Row | SMILES | prediction of CNS penetration (class from PAMPA-BBB Pe) | prediction of CNS penetration (PAMPA)
1 | CC(C)NCC(O)COc1ccc(CC(N)=O)cc1 (centres unmarked) [atenolol] | CNS– ^c (“CNS–” (prediction of low BBB permeation); Pe (10^–6 cm/s) < 1) | –
2 | CN1C(=O)CN=C(c2ccccc2)c2cc(Cl)ccc21 [diazepam] | – | CNS+ (key: “CNS+” (prediction of high BBB permeation); Pe (10^–6 cm/s) > 4.39; “CNS–” (prediction of low BBB permeation); Pe (10^–6 cm/s) < 1)
